Source: patent publication CN108290942A
No constants are given. Whether binding was seen depends on the method and setting. Some results given as binding are weak or reduced against the parent protein; the word gives no strength.

T1: 人信号素3A蛋白 (human) (UniProt Q14563)
T1 sequence (looked up): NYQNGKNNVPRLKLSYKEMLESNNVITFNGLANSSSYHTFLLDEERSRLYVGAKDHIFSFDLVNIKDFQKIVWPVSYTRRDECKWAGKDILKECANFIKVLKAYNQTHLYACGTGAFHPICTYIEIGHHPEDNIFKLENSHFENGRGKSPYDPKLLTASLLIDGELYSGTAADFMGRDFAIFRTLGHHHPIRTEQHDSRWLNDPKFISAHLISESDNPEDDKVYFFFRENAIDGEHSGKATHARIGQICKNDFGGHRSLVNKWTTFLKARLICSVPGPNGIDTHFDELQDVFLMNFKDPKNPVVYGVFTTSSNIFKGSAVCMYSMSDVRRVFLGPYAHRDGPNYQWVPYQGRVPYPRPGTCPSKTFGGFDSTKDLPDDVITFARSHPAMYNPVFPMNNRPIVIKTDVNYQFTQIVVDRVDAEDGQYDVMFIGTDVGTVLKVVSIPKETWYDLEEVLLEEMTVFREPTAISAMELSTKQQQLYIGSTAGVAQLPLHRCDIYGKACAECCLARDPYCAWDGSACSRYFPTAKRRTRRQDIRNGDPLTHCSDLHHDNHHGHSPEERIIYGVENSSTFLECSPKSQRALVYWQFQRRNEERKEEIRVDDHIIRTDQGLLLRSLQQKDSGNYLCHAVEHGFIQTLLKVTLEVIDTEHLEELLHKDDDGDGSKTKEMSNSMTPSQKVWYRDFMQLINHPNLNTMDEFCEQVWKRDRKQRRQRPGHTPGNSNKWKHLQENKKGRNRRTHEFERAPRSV

T2: 小鼠信号素3A蛋白 (mouse) (UniProt O08665)
T2 sequence (looked up): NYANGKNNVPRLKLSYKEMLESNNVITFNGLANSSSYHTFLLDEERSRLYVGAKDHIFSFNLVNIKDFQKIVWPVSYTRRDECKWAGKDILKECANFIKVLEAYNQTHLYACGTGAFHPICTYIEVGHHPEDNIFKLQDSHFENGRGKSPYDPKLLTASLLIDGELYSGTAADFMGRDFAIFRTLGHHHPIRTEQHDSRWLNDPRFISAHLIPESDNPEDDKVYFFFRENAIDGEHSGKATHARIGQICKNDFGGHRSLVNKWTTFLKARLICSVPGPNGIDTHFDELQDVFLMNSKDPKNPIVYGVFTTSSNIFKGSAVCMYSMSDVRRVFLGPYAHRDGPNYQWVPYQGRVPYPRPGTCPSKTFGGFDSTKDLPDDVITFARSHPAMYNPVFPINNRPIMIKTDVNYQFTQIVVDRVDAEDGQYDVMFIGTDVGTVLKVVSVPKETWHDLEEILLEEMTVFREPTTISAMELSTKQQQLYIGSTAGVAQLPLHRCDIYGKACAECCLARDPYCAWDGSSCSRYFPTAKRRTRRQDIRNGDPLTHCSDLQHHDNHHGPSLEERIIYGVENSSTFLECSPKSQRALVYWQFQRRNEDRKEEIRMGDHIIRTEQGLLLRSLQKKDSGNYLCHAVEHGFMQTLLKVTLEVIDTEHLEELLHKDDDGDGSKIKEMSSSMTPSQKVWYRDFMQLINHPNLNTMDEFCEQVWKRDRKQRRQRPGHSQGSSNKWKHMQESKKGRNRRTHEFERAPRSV


Tests used:
[1] = target: T1, 人信号素3A蛋白 (human); test: ELISA, IgG at 500 nM and 50 nM, BSA as negative control
[2] = target: T2, 小鼠信号素3A蛋白 (mouse); test: as above
[3] = target: T1, 人信号素3A蛋白 (human); test: SPR, Biacore
[4] = target: T2, 小鼠信号素3A蛋白 (mouse); test: SPR, Biacore

Row | binding [1] | binding [2] | binding [3] | binding [4] | Binder
1 | binds | binds | – | – | 抗信号素3A IgG C10 (antibody, V domains shown) VH: EVQLLESGGGLVQPGGSLRLSCAASGFTFSDYAMSWVRQAPGKGLEWVSGIYYDDSSQYYADSVEGRFTISRDNSKNTLYLQMNSLRAEDTAVYYCARYLGLFDYWGQGTLVTVSS VL: QSVLTQPPSASGTPGQRVTISCSGSSSNIGNNSVNWYQQLPGTAPKLLIYSDSQRPSGVPDRFSGSKSGTSASLAISGLRSEDEADYYCGSWDYSLSAYVFGGGTKLTVL
2 | binds | binds | – | – | 抗信号素3A IgG A08 (antibody, V domains shown) VH: EVQLLESGGGLVQPGGSLRLSCAASGFTFSDYAMSWVRQAPGKGLEWVSGIYYDDSSQYYADSVKGRFTISRDNSKNTLYLQMNSLRAEDTAVYYCAKNLGRFDYWGQGTLVTVSS VL: QSVLTQPPSASGTPGQRVTISCTGSSSNIGSNAVTWYQQLPGTAPKLLIYDDNHRPSGVPDRFSGSKSGTSASLAISGLRSEDEADYYCGAWDDSLSAYVFGGGTKLTVL
3 | binds | binds | binds | binds | 抗信号素3A IgG F11 (antibody, V domains shown) VH: EVQLLESGGGLVQTGGSLRLSCAASGFTFSDYAMSWVRQAPGKGLEWVSWIYYDSGSKYYADSVKGRFTISRDNSKNTLYLQMNSLRAEDTAVYYCAKLNGDFDYWGQGTLVTVSS VL: QSVLTQPPSASGTPGQRVTISCSGSSSNIGNNDVSWYQQLPGTAPKLLIYADSHRPSGVPDRFSGSKSGTSASLAISGLRSEDEADYYCGAWDSSLSGYVFGGGTKLTVL
